Measurements: publication PMC9410885, “Structural assembly of the nucleic-acid-binding Thp3–Csn12–Sem1 complex functioning in mRNA splicing” (Nucleic Acids Research, 2022)
The exact form of at least one protein or probe is not confirmed. The comparison behind a weaker result is the experiment's own reference, which may not be listed here.

How the values were obtained:
Assay in all cases: fluorescence polarization
Thp3 + Csn12 + Sem1 = conditions: FP: 20 mM Tris-HCl pH 8.0, 150 mM NaCl, 2 mM MgCl2, 25 C, 50 nM 5'-FAM probe, protein 0-25.6 uM, 30 min, recombinant protein, protein details: 8xHis-GST N-terminal, removed by TEV,none,none, label: 5' FAM
[1] = tested on: Thp3 K392E + Csn12 + Sem1; conditions: FP: 20 mM Tris-HCl pH 8.0, 150 mM NaCl, 2 mM MgCl2, 25 C; 50 nM 5'-FAM probe, protein 0-25.6 uM, 30 min; recombinant protein; protein details: 8xHis-GST N-terminal, removed by TEV,none,none; label: 5' FAM; single-stranded DNA
[2] = tested on: Thp3 K448E + Csn12 + Sem1; conditions: FP: 20 mM Tris-HCl pH 8.0, 150 mM NaCl, 2 mM MgCl2, 25 C; 50 nM 5'-FAM probe, protein 0-25.6 uM, 30 min; recombinant protein; protein details: 8xHis-GST N-terminal, removed by TEV,none,none; label: 5' FAM; single-stranded DNA
[3] = tested on: Thp3 R451E + Csn12 + Sem1; conditions: FP: 20 mM Tris-HCl pH 8.0, 150 mM NaCl, 2 mM MgCl2, 25 C; 50 nM 5'-FAM probe, protein 0-25.6 uM, 30 min; recombinant protein; protein details: 8xHis-GST N-terminal, removed by TEV,none,none; label: 5' FAM; single-stranded DNA
[4] = tested on: Thp3 R451E/K462E + Csn12 + Sem1; conditions: FP: 20 mM Tris-HCl pH 8.0, 150 mM NaCl, 2 mM MgCl2, 25 C; 50 nM 5'-FAM probe, protein 0-25.6 uM, 30 min; recombinant protein; protein details: 8xHis-GST N-terminal, removed by TEV,none,none; label: 5' FAM; single-stranded DNA

## TTTTATTTATTATTT [T-rich ssDNA 15]
Thp3 + Csn12 + Sem1; single-stranded DNA
  binding result: binds more weakly

## AUAUAUAUAUAUAUA [AU-repeat ssRNA 15]
Thp3 + Csn12 + Sem1
  binding result: binds more weakly

## TTTTATTTTATTTTTATTTT [T-rich ssDNA 20]
[1]
  binding result: binds more weakly
[2]
  binding result: binds more weakly
[3]
  binding result: binds more weakly
[4]
  binding result: binds more weakly
